For two substances, binding results are on record in article PMC10297445.

By UniProt entry, the sequences of proteins in these tests, tags left out. Where a name states a change or a piece, a line headed by the entry shows the natural chain unless it says otherwise. Residues count along the entry.
UniProt Q60613: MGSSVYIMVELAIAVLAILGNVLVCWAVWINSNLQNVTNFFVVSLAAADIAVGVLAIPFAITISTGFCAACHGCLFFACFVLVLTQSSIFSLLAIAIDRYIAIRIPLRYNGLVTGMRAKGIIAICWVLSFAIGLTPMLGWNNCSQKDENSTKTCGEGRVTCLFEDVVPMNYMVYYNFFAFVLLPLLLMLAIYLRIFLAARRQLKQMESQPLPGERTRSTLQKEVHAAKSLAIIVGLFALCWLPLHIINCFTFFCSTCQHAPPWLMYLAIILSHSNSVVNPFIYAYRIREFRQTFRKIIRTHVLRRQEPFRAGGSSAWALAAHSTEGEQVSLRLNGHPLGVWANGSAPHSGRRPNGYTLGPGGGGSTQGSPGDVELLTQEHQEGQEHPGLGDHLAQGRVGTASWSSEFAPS
UniProt O15118, residues 23-1278: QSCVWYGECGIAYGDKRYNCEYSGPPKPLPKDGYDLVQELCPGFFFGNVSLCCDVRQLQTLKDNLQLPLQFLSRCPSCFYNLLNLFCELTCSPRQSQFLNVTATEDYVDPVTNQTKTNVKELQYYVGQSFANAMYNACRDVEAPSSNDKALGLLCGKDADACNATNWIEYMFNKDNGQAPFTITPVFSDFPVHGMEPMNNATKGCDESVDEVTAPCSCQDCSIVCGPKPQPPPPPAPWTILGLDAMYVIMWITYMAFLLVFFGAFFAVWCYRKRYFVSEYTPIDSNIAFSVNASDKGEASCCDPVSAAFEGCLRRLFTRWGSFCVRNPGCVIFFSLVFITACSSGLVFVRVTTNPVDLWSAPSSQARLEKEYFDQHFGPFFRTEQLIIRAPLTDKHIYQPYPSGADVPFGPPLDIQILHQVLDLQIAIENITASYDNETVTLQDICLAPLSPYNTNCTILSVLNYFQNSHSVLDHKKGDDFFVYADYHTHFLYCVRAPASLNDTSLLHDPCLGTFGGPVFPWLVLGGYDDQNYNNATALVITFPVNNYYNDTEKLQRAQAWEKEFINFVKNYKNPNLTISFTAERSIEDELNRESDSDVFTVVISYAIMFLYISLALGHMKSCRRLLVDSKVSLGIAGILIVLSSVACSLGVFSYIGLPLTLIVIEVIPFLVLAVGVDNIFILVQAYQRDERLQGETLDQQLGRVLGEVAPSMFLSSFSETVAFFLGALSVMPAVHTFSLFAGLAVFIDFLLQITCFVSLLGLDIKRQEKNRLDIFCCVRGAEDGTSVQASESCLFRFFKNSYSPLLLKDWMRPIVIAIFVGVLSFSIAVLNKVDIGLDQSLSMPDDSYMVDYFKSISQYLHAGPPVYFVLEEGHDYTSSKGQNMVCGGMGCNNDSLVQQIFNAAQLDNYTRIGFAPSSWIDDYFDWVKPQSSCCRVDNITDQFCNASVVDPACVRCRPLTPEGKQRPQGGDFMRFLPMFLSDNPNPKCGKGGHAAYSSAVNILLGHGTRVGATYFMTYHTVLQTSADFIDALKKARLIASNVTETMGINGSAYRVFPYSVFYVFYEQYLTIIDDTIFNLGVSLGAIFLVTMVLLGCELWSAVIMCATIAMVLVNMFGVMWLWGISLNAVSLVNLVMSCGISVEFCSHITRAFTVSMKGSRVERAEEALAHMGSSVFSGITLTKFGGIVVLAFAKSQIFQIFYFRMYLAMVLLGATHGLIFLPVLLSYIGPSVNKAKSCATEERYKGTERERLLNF
UniProt O35604, residues 23-1277: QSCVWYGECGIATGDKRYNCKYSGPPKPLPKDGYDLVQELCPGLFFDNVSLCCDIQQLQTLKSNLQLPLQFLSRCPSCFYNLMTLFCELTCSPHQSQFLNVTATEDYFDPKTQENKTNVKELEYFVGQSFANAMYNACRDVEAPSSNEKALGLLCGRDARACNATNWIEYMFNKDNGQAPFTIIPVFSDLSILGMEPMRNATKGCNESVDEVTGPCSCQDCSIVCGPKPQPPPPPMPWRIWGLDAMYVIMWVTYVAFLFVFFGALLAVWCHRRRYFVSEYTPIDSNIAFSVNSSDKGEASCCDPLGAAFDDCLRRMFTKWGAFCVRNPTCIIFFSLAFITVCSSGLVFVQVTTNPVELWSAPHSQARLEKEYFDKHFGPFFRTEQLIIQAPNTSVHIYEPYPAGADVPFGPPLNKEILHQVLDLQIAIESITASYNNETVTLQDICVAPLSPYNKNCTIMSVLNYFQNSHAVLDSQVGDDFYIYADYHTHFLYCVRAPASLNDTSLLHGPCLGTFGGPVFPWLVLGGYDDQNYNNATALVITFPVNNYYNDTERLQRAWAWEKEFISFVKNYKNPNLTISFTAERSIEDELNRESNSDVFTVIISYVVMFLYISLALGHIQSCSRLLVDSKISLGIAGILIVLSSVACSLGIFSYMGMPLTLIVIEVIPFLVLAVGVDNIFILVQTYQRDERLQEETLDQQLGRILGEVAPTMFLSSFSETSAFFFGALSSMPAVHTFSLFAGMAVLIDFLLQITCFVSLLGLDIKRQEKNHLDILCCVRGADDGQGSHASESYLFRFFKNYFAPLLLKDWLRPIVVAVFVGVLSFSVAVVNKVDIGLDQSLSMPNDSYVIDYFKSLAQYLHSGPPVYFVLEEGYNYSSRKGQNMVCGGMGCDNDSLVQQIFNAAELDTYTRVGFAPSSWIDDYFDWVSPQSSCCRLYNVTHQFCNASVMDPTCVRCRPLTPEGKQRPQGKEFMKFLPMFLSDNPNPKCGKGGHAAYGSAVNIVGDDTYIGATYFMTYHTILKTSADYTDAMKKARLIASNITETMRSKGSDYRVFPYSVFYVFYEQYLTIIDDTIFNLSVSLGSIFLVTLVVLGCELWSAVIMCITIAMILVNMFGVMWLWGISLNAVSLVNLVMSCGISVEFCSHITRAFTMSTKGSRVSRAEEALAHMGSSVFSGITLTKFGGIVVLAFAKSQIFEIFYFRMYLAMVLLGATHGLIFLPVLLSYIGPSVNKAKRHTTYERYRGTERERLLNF

No constants are given. Whether binding was seen depends on the method and setting. Binding seen in cells or lysates may run through a third protein. Some results given as binding are weak or reduced against the parent protein; the word gives no strength.

Experiment [1] deals with Flag-A2AR^SNAP (human adenosine A2A receptor tagged with Flag and SNAP at its N-terminus) (human) (UniProt P29274). The experiment in a line: co-IP; HEK-293-Flag-A2AR^SNAP cell lysate (500 µg protein) with 8.5 µg anti-A2AR antibody or control rabbit serum, Dynabeads Protein G; western blot with anti-NPC1. For orientation: In western blotting, separated proteins are transferred to a membrane and probed.

The target in experiment [2] is Adenosine A2A receptor, endogenous in RAW 264.7 cells (mouse (endogenous in RAW 264.7)) (UniProt Q60613). The experiment in a line: co-IP; RAW 264.7 cell lysate (500 µg protein), endogenous proteins, with 8.5 µg anti-A2AR antibody or without antibody, Dynabeads Protein G; western blot with anti-NPC1.

In the case of “Niemann–Pick C1 protein (endogenous in HEK-293 cells) (from UniProt O15118 23-1278)”, in experiment [1], the binding result is given as “binds”.

For the substance “Niemann–Pick C1 protein (mouse, endogenous) (from UniProt O35604 23-1277)”, in experiment [2], the binding entry is listed as “binds”.
